PubChem BioAssay AID652272 | Drosophila RNAi Screening Center – 2013
Screen: 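Finding fly genes that regulate Hedgehog signal transduction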 (primary screen). Cells: Drosophila clone 8 (Cl8) cells. Reagent: long dsRNA against Drosophila genes. Detection: 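Plate reader light from a firefly reporter under a ptc promoter fragment that responds to Hedgehog, with Renilla light as transfection reference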. Reading the numbers: firefly Hh reporter signal: higher = more ptc reporter light; Renilla reference signal: higher = more Renilla control light. Active means: 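Hit when the z-score averaged over two replicates is under -2 or over +3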. Calls: active = hit: reporter lowered or raised; inactive = not a hit.
In all, the deposit lists about 21,000 reagents; shown is a random part of those with a known target gene and a result. In the full data, 503 (2.4%) are marked active. 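Raw plate light values, not normalised; calls rest on replicate z-scores that were not deposited; hits include reporter decreases as well as increases.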 A plus sign joins genes that one reagent is predicted to hit. Not stated in the record: the amount of reagent, the time to read-out.

| target | DRSC id | firefly Hh reporter signal, replicate 1 | firefly Hh reporter signal, replicate 2 | firefly Hh reporter signal, replicate 3 | Renilla reference signal, replicate 1 | Renilla reference signal, replicate 2 | activity call |
| --- | --- | --- | --- | --- | --- | --- | --- |
| CG7239 | DRSC03038 | 63553 | 37296 | – | 2937 | 2040 | inactive |
| lncRNA:CR42862 + CG33229 | DRSC08497 | 1.45e5 | 89680 | – | 5977 | 3635 | inactive |
| bond | DRSC16135 | 92235 | 1.42e5 | – | 3803 | 5339 | inactive |
| Fatp2 | DRSC03971 | 1.26e5 | 2.13e5 | – | 3562 | 10548 | inactive |
| Fatp2 | DRSC04178 | 94358 | 50560 | – | 1568 | 4772 | inactive |
| Fatp2 | DRSC04330 | 1.05e5 | 63949 | – | 2178 | 5776 | inactive |
| CG6424 | DRSC05936 | 94522 | 77220 | – | 4281 | 3168 | inactive |
| Obp99d | DRSC15046 | 58986 | 1.30e5 | – | 2341 | 3818 | inactive |
| fln | DRSC11346 | 1.52e5 | 88668 | – | 5127 | 4003 | inactive |
| RagA-B | DRSC14450 | 96197 | 57692 | – | 4264 | 2692 | inactive |
| CG13344 | DRSC06378 | 1.11e5 | 94923 | – | 4820 | 4048 | inactive |
| CG4021 | DRSC04439 | 94009 | 69081 | – | 2864 | 7120 | inactive |
| CG10222 | DRSC09714 | 50416 | 71271 | 84546 | 5738 | 5184 | inactive |
| Cad87A | DRSC16161 | 98658 | 82320 | – | 4144 | 3559 | inactive |
| Nrx-1 | DRSC16184 | 1.16e5 | 94004 | – | 3435 | 3098 | inactive |
| tub | DRSC12389 | 1.65e5 | 6.29e5 | 97922 | 6028 | 34996 | inactive |
| Ctr1A | DRSC18336 | 91457 | 2.95e5 | – | 3276 | 9955 | inactive |
| CG2211 | DRSC08559 | 80288 | 40908 | – | 2464 | 3040 | inactive |
| CG7557 | DRSC10878 | 1.77e5 | 1.17e5 | – | 6488 | 4572 | inactive |
| r + CG13012 | DRSC19531 | 76653 | 1.74e5 | – | 2245 | 7284 | inactive |
| TrpRS | DRSC14097 | 84123 | 1.33e5 | – | 1243 | 3672 | inactive |
| slo | DRSC13685 | 43296 | 3.97e5 | – | 17300 | 9690 | inactive |
| slo | DRSC17057 | 89892 | 97494 | – | 3361 | 3671 | inactive |
| Ir51a | DRSC06256 | 99946 | 58176 | – | 2929 | 4496 | inactive |
| Polr3C | DRSC14490 | 1.39e5 | 1.06e5 | – | 6640 | 4725 | inactive |
| Pka-C1 | DRSC03399 | 45523 | 59588 | – | 3241 | 3732 | active |
| t-cup | DRSC01254 | 5.82e5 | 2.28e5 | – | 23595 | 11859 | inactive |
| p-cup | DRSC19513 | 76924 | 2.66e5 | – | 1827 | 10088 | inactive |
| CG10803 | DRSC17763 | 1.86e5 | 1.02e5 | – | 3931 | 3367 | inactive |
| CG9044 | DRSC03130 | 1.27e5 | 51328 | – | 4418 | 2480 | inactive |
| Rok | DRSC20277 | 97155 | 83929 | – | 1760 | 1997 | inactive |
| CG6126 | DRSC15971 | 95606 | 1.07e5 | – | 4073 | 4592 | inactive |
| CG13288 | DRSC09962 | 68592 | 58402 | – | 7163 | 4582 | inactive |
| CG3587 | DRSC18541 | 1.48e5 | 6.42e5 | 89221 | 3524 | 33949 | inactive |
| NdufV3 | DRSC19423 | 85142 | 2.54e5 | – | 1821 | 9888 | inactive |
| CG2680 | DRSC18466 | 62860 | 1.47e5 | – | 2151 | 5914 | inactive |
| CG18558 | DRSC00525 | 1.65e5 | 1.21e5 | – | 3273 | 2633 | inactive |
| CG3626 | DRSC18318 | 83970 | 2.04e5 | – | 3232 | 7050 | inactive |
| CG8907 | DRSC16453 | 1.09e5 | 80789 | – | 4393 | 3356 | inactive |

No new results follow: an excerpt of the list.
| target | DRSC id | firefly Hh reporter signal, replicate 1 | firefly Hh reporter signal, replicate 2 | firefly Hh reporter signal, replicate 3 | Renilla reference signal, replicate 1 | Renilla reference signal, replicate 2 | activity call |
| --- | --- | --- | --- | --- | --- | --- | --- |
| CG13344 | DRSC06378 | 1.11e5 | 94923 | – | 4820 | 4048 | inactive |
| CG4021 | DRSC04439 | 94009 | 69081 | – | 2864 | 7120 | inactive |
| CG10222 | DRSC09714 | 50416 | 71271 | 84546 | 5738 | 5184 | inactive |
